Some of the results follow. The main result of the screen is listed elsewhere. These columns were measured beside it and carry no call. Compounds called inactive in the main read-out are mostly missing here. The note in brackets gives the kind of curve behind each potency; many fits are weak.
Assay: qHTS Assay for Modulators of Lamin A Splicing
Conditions: HeLa LMNA splicing GFP/RFP minigene ratio, 48 h
In short: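 S3 HeLa stable clones carrying a lamin A-EGFP splicing minigene plus DsRed2 were seeded at 600 cells/well in Opti-MEM with 2% FBS, pin-dosed and incubated 48 h at 37°C. Acumen cytometry (488 nm) gave the GFP/RFP total-intensity ratio.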

[1] = measured here: GFP splicing reporter channel
[2] = measured here: RFP viability control channel

SMILES	AC50 [1]	AC50 [2]
CN(N=O)c1ccc(O)c(O)c1	0.0224 µM [falling, full curve, poor fit]	–
CCCCCCN1CCN(c2ccccc2Cl)CC1	–	0.00631 µM [falling, full curve, poor fit]
CCCN1CCC[C@@H]2Cc3nc(N)ncc3C[C@H]21	12.6 µM [rising, partial curve, poor fit]	–
COC(=O)CSc1cc([N+](=O)[O-])cc2c1c(C1OCCO1)nn2-c1ccccc1	3.98 µM [falling, partial curve]	5.62 µM [falling, partial curve]
Cc1ccc(-n2nc(C)c(C3C(C#N)=C(N)Oc4c3c(=O)oc3ccccc43)c2Cl)cc1 (stereo not drawn)	–	11.2 µM [rising, partial curve, poor fit]
O=C(O)CCCC[C@H]1SC[C@H]2NC(=O)N[C@@H]21	2 µM [falling, partial curve, poor fit]	–
COc1ccc(C2=C(C(C)=O)Sc3nnc(-c4ccc(C)cc4)n3N2C(C)=O)cc1OC	35.5 µM [rising, single point]	17.8 µM [rising, partial curve]
O=C(COc1ccc2ccccc2c1)N1CCN(Cc2c[nH]c3ccccc23)CC1	35.5 µM [falling, single point]	28.2 µM [falling, single point]
CC12CC[C@H]3[C@@H](CCC4(O)C[C@H](O)CCC34/C=N/NC(=O)Cc3ccccc3)C1(O)CCC2C1=CC(=O)OC1 (stereo partly drawn)	–	22.4 µM [rising, partial curve, poor fit]
Cc1ccc(C(=O)c2cn(CC(=O)Nc3ccc(C(C)C)cc3)c3nc(C)ccc3c2=O)cc1	–	0.00316 µM [falling, full curve, poor fit]
CCOC(=O)CSCCOc1ccc(C=C2C(=O)NC(=O)NC2=O)cc1OC	0.00355 µM [rising, full curve, poor fit]	0.00316 µM [rising, full curve, poor fit]
N#Cc1cccc(NC(=O)c2sc3nc4c(cc3c2N)N2CCC4CC2)c1	35.5 µM [falling, single point]	–
Cc1cc2c(s1)Nc1ccccc1N=C2N1CCN(C)CC1	25.1 µM [falling, single point]	25.1 µM [falling, single point]
CCN(CC)C(=O)/C(Cl)=C(\C)OP(=O)(OC)OC	0.562 µM [falling, full curve, poor fit]	–
Cc1onc(-c2ccccc2Cl)c1C(=O)OCC(=O)c1ccc2c(c1)OCCO2	12.6 µM [rising, single point]	17.8 µM [rising, partial curve]
CCOc1ccc(NC(=O)c2cccn(Cc3cccc(Cl)c3)c2=O)cc1	7.08 µM [falling, partial curve]	–
N#CC(=Cc1ccc(O)c(O)c1)C(N)=S	0.0562 µM [rising, full curve]	–
Oc1ccccc1/C=N/NP(=S)(c1ccccc1)c1ccccc1	35.5 µM [rising, partial curve, poor fit]	22.4 µM [rising, partial curve]
Cc1ccc(P(=O)(O)c2ccc(C)cc2)cc1	0.794 µM [falling, full curve, poor fit]	1 µM [falling, full curve, poor fit]

SMILES	AC50 [1]	AC50 [2]
COc1ccc(C(O)c2cc(OC)ccc2OP(=O)(N(C)C)N(C)C)cc1 (stereo not drawn)	–	0.398 µM [falling, full curve]
COc1ccc(O)c(CN2CCCC(C(=O)c3ccccc3SC)C2)c1 (stereo not drawn)	3.55 µM [falling, partial curve, poor fit]	–
CC(Oc1ccc(Cl)cc1Cl)C(=O)Nc1ccc(S(=O)(=O)Nc2cnc3ccccc3n2)cc1 (stereo not drawn)	15.8 µM [rising, single point]	35.5 µM [rising, single point]
C#CCN1CC(=O)N(COC(=O)[C@@H]2[C@@H](C=C(C)C)C2(C)C)C1=O	0.00398 µM [falling, full curve, poor fit]	0.447 µM [falling, full curve, poor fit]
CC(C)N(CCC(C(N)=O)(c1ccccc1)c1ccccn1)C(C)C (stereo not drawn)	0.00501 µM [falling, full curve, poor fit]	–
O=C1NC(=O)C(CCc2ccncc2)(Cc2cccc(Cl)c2Cl)C(=O)N1c1ccc(Br)cc1 (stereo not drawn)	35.5 µM [falling, single point]	14.1 µM [falling, single point]
COC(=O)/C(C)=C\CC12OC(C)(C)C3CC(C=C4C(=O)c5c(OC)c6c(c(CC=C(C)C)c5OC431)OC(C)(CCC=C(C)C)C=C6)C2=O (stereo not drawn)	1.41 µM [falling, full curve]	0.891 µM [falling, full curve]
Cc1[nH]c2ccccc2c1CCCNC1CCCCC1	–	35.5 µM [rising, single point]
Nc1ccc2c(c1)Cc1ccccc1-2	–	0.2 µM [rising, full curve, poor fit]
COc1cc2c(cc1OC)-c1c(OC)c(OC)c(OC)c3ccnc(c13)C2=O	–	11.2 µM [rising, partial curve]
COc1cc2c(cc1OC)[C@@]13CCN4CC5=CCOC6CC(=O)N2C1[C@H]6[C@@H]5C[C@@H]43 (stereo partly drawn)	–	35.5 µM [falling, single point]
Cc1csc(NC(=O)C2CCCN(S(=O)(=O)c3ccc4c(c3)oc(=O)n4C)C2)n1 (stereo not drawn)	–	11.2 µM [rising, partial curve]
CN(C(=O)CN1CC=C(c2ccccc2)CC1)c1c(N)n(Cc2ccccc2)c(=O)[nH]c1=O	–	5.62 µM [rising, single point]
COc1ccc(CN2C(=O)NC(=O)/C(=C\c3ccco3)C2=O)cc1	–	25.1 µM [rising, partial curve, poor fit]
CCOc1ccc(OCC)c(NC(=O)CN2CCN(c3ccc(C)cc3C)CC2)c1	–	14.1 µM [rising, partial curve]
C[C@H](N)[C@H](O)c1ccc(O)c(O)c1	0.316 µM [falling, single point]	0.251 µM [falling, single point]
CCc1ccc(CNCCc2ccc(F)cc2)cc1	6.31 µM [rising, single point]	–
COc1ccc(-c2nnc3sc(C4CCCCC4)nn23)cc1OC	–	35.5 µM [rising, single point]
C=CCO[C@@H](Cn1ccnc1)c1ccc(Cl)cc1Cl	14.1 µM [falling, single point]	14.1 µM [falling, single point]

SMILES	AC50 [1]	AC50 [2]
COc1cc(/C=C/[N+](=O)[O-])ccc1O	–	35.5 µM [rising, single point]
CCCCCCC[n+]1ccc(-c2cc[n+](CCCCCCC)cc2)cc1	17.8 µM [rising, partial curve]	14.1 µM [rising, partial curve]
CC(C)n1c(/C=C/[C@H](O)C[C@H](O)CC(=O)O)c(-c2ccc(F)cc2)c2ccccc21	0.355 µM [rising, full curve, poor fit]	–
O=c1c2ccccc2nc(-c2ccoc2)n1-c1ccccc1Cl	–	14.1 µM [rising, single point]
C[C@]12CC[C@@H](O)C[C@@H]1CC[C@@H]1[C@@H]2CC[C@]2(C)[C@@H](O)CC[C@@H]12	17.8 µM [rising, single point]	25.1 µM [falling, partial curve]
O=c1c2ccccc2nc(/C=C/c2ccccc2)n1-c1ccccc1F	–	2.82 µM [rising, full curve, poor fit]
Cc1[nH]n(-c2ccccc2)c(=O)c1C(c1ccc([N+](=O)[O-])cc1)c1c(C)[nH]n(-c2ccccc2)c1=O	–	7.08 µM [rising, partial curve]
O=c1[nH]c(=O)n(CCC2=CCCCC2)c(O)c1C=NCCCn1ccnc1	–	0.282 µM [rising, full curve, poor fit]
CN1CCN(c2cccc3c2C(=O)c2ccccc2C3=O)CC1	–	12.6 µM [rising, partial curve, poor fit]
CCCCn1c(NC(=O)c2ccco2)c(C(=O)OCC)c2nc3ccccc3nc21	–	12.6 µM [falling, partial curve, poor fit]
COc1cc(C(CN)CC(=O)O)ccc1O (stereo not drawn)	0.0141 µM [rising, full curve, poor fit]	–
Cc1ccccc1N1CCN(S(=O)(=O)c2nnc(NC(=O)c3ccc(Cl)cc3)s2)CC1	–	0.0126 µM [falling, full curve, poor fit]
O=C(O)c1ccccc1SCC(=O)N1c2ccccc2Sc2ccccc21	–	35.5 µM [rising, single point]
OC1CCCCC1N1CCC(c2ccccc2)CC1 (stereo not drawn)	0.158 µM [rising, full curve]	–
CCCCCCCCCC[Si](C)(C)CCC(=O)NC(Cc1ccc(C)cc1)c1ccccc1 (stereo not drawn)	–	0.000891 µM [falling, full curve, poor fit]
CCCCc1nc2ccccc2c(=O)n1-c1ccc(O)cc1	–	35.5 µM [rising, single point]
O=C(c1ccc2c(c1)ncn2C1CCCCC1)N1CCC2(CC1)OCCO2	0.0316 µM [falling, single point]	–
NCCc1ccc(S(=O)(=O)F)cc1	17.8 µM [rising, single point]	6.31 µM [falling, partial curve, poor fit]

Single values from the list:
Value of `Cc1onc(-c2ccccc2Cl)c1C(=O)OCC(=O)c1ccc2c(c1)OCCO2` under AC50 [1]: 12.6 µM [rising, single point]
Value of `Cc1ccccc1N1CCN(S(=O)(=O)c2nnc(NC(=O)c3ccc(Cl)cc3)s2)CC1` under AC50 [2]: 0.0126 µM [falling, full curve, poor fit]

From PubChem BioAssay AID1487 (National Center for Advancing Translational Sciences (NCATS), 2009)
